Out of some 52,000 sequences screened, about 210 (0.4%) were called active.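 The calls were made as follows: active = gene whose silencing raises cell survival under the drug, median off-target-corrected z-score across its silencing RNAs 2 or more; inactive = the rest.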 The list shows a part of the results.
test: Resistance to Poly (ADP-Ribose) Polymerase inhibitor: Gene Identification via Genome-wide siRNA Screen; conditions: mouse BRCA2 R2336H ES cells, olaparib, CellTiter-Glo viability; hits give high values
Outline: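 Mouse BRCA2 R2336H ES cells were reverse-transfected with siRNA (20 nM final), treated at 48 h with 500 nM olaparib, and read by CellTiter-Glo after 72 h. Scores: MAD-based z per siRNA, median per gene, seed off-target correction.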

Row | Sequence | z-score
1 | CCUUAUAGCAUAAGCUUUATT against Olfr768 | inactive: -0.137
2 | GCAUAUGCGAACAGUAAAATT against Rab28 | inactive: -0.344
3 | GCCAUUUCCUUCAGUAGUATT against Olfr1355 | inactive: -1.07
4 | GGAGUUUGAACGUGAGCGGTT against Ndufb7 | inactive: -0.412
5 | UUUACCUUGUCACCGUCUUTT against Olfr1029 | inactive: 0.526
6 | GGUACUAACACCACAAAAATT against 4921537D05Rik | inactive: -0.305
7 | CGCGGUAUUCUCCUUGAAGTT against Ccr4 | inactive: -0.196
8 | GGCUAUUGACUUCAUAGACTT against Dusp1 | inactive: -0.36
9 | GUCAUUUUGCUAGUGGUGATT against Olfr142 | inactive: -0.0843
10 | GCAGUUGCGUUCUAUUGAATT against D19Ertd678e | inactive: -2.43
11 | GGUGGAGAGGGACAACUUUTT against Gfap | inactive: 0.528
12 | GGAGUCCAAAGAGAAGUUCTT against Pwwp1 | inactive: 0.692
13 | GCAUGGAGAGACAGUUAACTT against Ccdc2 | inactive: -1.11
14 | CCUAUAAAUGUCCUUAGUCTT against 2310061I09Rik | inactive: -1.32
15 | GAUGCUGUAGUCUUGUGAGTT against Sprrl2 | inactive: 0.0435
16 | GCAAUAGCAAAACGACUAATT against Nrk | inactive: 0.765
17 | GGUCAAUUGUCCAUAUGACTT against Tnrc9 | inactive: 0.795
18 | CCCUUAUGAACCCAUAAAGTT against Oasl1 | inactive: 0.473
19 | GGAAUCUAGGAUUCCACAGTT against Tbxa2r | inactive: -2.23
20 | GCGUGUGACUUACAAGGAATT against Mapk12 | inactive: 0.0729
21 | GCAUUUAUAAUUGCUGAACTT against Cbx1 | inactive: 0.43
22 | GGUUCCUCUCCUCCUGAUATT against Olfr1444 | inactive: -1.96
23 | GGAUUCGAGUGGUAACAAGTT against 1110025F24Rik | inactive: -1.78
24 | GGAUGAUCACAUCGAUUGGTT against Vps41 | inactive: -0.73
25 | CCCAUCUUUUAGAAAAUGGTT against A730024A03Rik | inactive: -0.428
26 | GCAGUAGUAACUGCUUGAGTT against Saa2 | inactive: -1.73

A second format for some results above:

| Row | Sequence | z-score |
| --- | --- | --- |
| 7 | CGCGGUAUUCUCCUUGAAGTT against Ccr4 | inactive: -0.196 |
| 11 | GGUGGAGAGGGACAACUUUTT against Gfap | inactive: 0.528 |
| 15 | GAUGCUGUAGUCUUGUGAGTT against Sprrl2 | inactive: 0.0435 |
| 18 | CCCUUAUGAACCCAUAAAGTT against Oasl1 | inactive: 0.473 |
| 20 | GCGUGUGACUUACAAGGAATT against Mapk12 | inactive: 0.0729 |
| 21 | GCAUUUAUAAUUGCUGAACTT against Cbx1 | inactive: 0.43 |

More records:

Row | Sequence | z-score
27 | GGAAGACAACAAAAGGAUGTT against 1700012M14Rik | inactive: -0.511
28 | GCCUUGCUGCCAGAACCUATT against Sumf2 | inactive: -0.824
29 | GCAUUAAAAACCCUUUUUGTT against B230354K17Rik | inactive: 1.27
30 | GCAUAAGUCCCUCUUAGUGTT against Slc6a7 | inactive: 0.628
31 | GGAAGAAGUCAGAUGUGGATT against D930005D10Rik | inactive: -0.0931
32 | CGAACAGUCUGUAUGGCGATT against Jak1 | active: 3.46
33 | GCCCAUCAGUGAGGUGCUATT against Adh7 | inactive: 3.33
34 | GCAAAGACAAUCUUUAAGGTT against Pde4d | inactive: -0.175
35 | GGUGUUCAAACUGAUUGGATT against 4930432B04Rik | inactive: 0.962
36 | GGAGGAAGAGAUGAUUUUATT against A930039G15Rik | inactive: 1.04
37 | GCUGCCUACACCUUUUACGTT against Abhd8 | inactive: 2.32
38 | GCUAUUGGACAGCUUCUACTT against Olfr1313 | inactive: -0.601
39 | AUCUCUCGGUGGUGGACUGTT against Olfr1474 | inactive: 0.562
40 | GGGACUGAAUUUAGUUUCATT against Prx | inactive: -0.398
41 | GGAUGAGUUAAGUUUCUCATT against Sh3d19 | inactive: 2.39
42 | CCUGCUACCUUAACUCUAATT against C630002M10Rik | inactive: -1.72
43 | GGAAGACAGGGACAAUACCTT against Car15 | inactive: -0.633
44 | CGAGUGUUGAAUAUUGUGATT against Gpr65 | inactive: 0.641
45 | GCCAGCUACUCUCUUGAGATT against Olfr419 | inactive: -0.708
46 | GGAUGUAUCUGGAGAAUUUTT against 1110019C08Rik | inactive: 0.175
47 | GGGCAUCAUGAAACUAUGUTT against Kbtbd4 | inactive: 1.11
48 | CGCAGAUAAUAUCUUUGUCTT against Olfr461 | inactive: -0.173
49 | GGGAAGUCCAAAUAACGGATT against 4930500C15Rik | inactive: -0.301
50 | CCUACCCUACUAAUGAAUUTT against Cldn4 | inactive: 1.46
51 | GCUUUUAUACACUUCCCUCTT against Nmt1 | inactive: 1.12
52 | CCAGCGACUACAGCAAAUATT against Gcg | inactive: -1.67

Row | Sequence | z-score
53 | GCCUUAUCAGGGUUAAUGGTT against Ipo4 | inactive: -0.845
54 | CCAGAUACCCAUAAUAUCUTT against Mbnl1 | inactive: -0.477
55 | GGGUCAUUUUUUAGCCUUCTT against V1rj2 | inactive: -0.97
56 | GGCGUAAUUUUGAUUCAGUTT against 2410018C17Rik | inactive: -0.0355
57 | GCGUAACUACUACAUGAAUTT against 5430425C04Rik | inactive: 1.46
58 | CCCAUUCAAGCACUUAUGGTT against 2610318K02Rik | inactive: -0.653
59 | CGGUUCUUUUACCAAGAUCTT against Jak3 | inactive: 0.655
60 | GGUGUAUGGACCAUUUUAUTT against E430026E19Rik | inactive: 0.87
61 | GGAAGUCUUAGAAGUAGCCTT against Diap3 | inactive: 0.546
62 | GCCAAUCUCAAGAUGAAGCTT against Emid2 | inactive: -0.712
63 | GGUCUUCCUGGUUCAGCUUTT against Pold4 | inactive: 0.588
64 | GCAUAACAAGCAACUUAAGTT against Bms1l | inactive: -2.5
65 | GCGCAGUUUCAAGGAACUGTT against Kcnf1 | inactive: 0.782
66 | CCUGACACUUAUUCUCGGGTT against 5330416C01Rik | inactive: 0.032
67 | GGAGCUGGAUGGUGUUGGUTT against Prom2 | inactive: -1.78
68 | GGUAGAGGAUUUACUGAGCTT against Creb3 | inactive: 0.00692
69 | CCCUGCUUCGUGUGCUAUUTT against C130074G19Rik | inactive: -1.31
70 | GGAAACUUUACUUUCAUGGTT against Kcnma3 | inactive: 2.14
71 | GGUUAUCUUCUUGACAGAATT against Nmur2 | inactive: -0.599
72 | CCAGUUAAACACAUUAGCCTT against 1200013A08Rik | inactive: -0.447
73 | GGAUAACAGUAAAUGGCUUTT against Zfp192 | inactive: 1.36
74 | GGAUUUGUUCGACCAGAUUTT against Epb4.1l4b | inactive: -2.85
75 | GGAGGAAAUCCAAGAACUUTT against Fgfr1op2 | inactive: -1.13
76 | GGAGCAGAUUCGGAAGAAATT against Nr1h2 | inactive: 0.656
77 | GCAUCAAAGGUCUGAGACUTT against Pdzx | inactive: -2.33
78 | GCUUUUUGCAUUGACUGGATT against Usp14 | inactive: 0.474

Row | Sequence | z-score
79 | GGACUUUUACAUUGAGUCCTT against Shprh | inactive: -0.725
80 | GGCAGGUAUGGAUGUAUUGTT against Renbp | inactive: -1.33
81 | CCAACUGCACUGUCAAACUTT against Tbcc | inactive: -0.0519
82 | CCAACAGGGAGUGUUGAUUTT against Oas1b | inactive: 0.573
83 | GCAUGUAUAGCCACUUUUGTT against Ifna6 | inactive: -0.801
84 | GGAAAUCCUGCCAUCAAACTT against 1110001A12Rik | inactive: 0.774
85 | CGCGCCCGUCAAAUUUGAUTT against AI847670 | inactive: 0.563
86 | CGAAGAGAUCUCACUAUAATT against Trnt1 | inactive: 0.481
87 | GCAGUAUGUAAACCCUUACTT against Olfr1463 | inactive: -2.43
88 | GCAAGUUAUCCAGCACUCATT against Ylpm1 | inactive: -1.57
89 | GCCUGUAUGAGCUCACUGUTT against Fbxo2 | inactive: -0.656
90 | GGUACACACUGUGUGGCUUTT against Paqr4 | inactive: -0.166
91 | GGUACGAGAACAACUGACUTT against Pte2a | inactive: -0.847
92 | UAAUCAUGAGCUCUUCCGATT against MGI:2684414 | inactive: 1.53
93 | CCUUCUUUAUAGGUAUGACTT against BC025816 | inactive: -0.126
94 | GGGAGAGCACAGAUGUGGATT against 5830472H07Rik | inactive: 1.23
95 | GGCAAAGUGUCCCUCCGAATT against C130057D23Rik | inactive: 2.03
96 | GGUGAAAUCCAUUAAAGAATT against Fth1 | inactive: 1.36
97 | GCAACUUUAAUGACAGCGUTT against Moxd1 | inactive: -0.598
98 | CCCACCUAGCAUACGACUATT against Kazald1 | inactive: -0.209
99 | GGCUUUUGAAGUAAAUACATT against Pcdhb14 | inactive: 0.332
100 | GGUGUUAGCUUCUCAAAAUTT against Tmem27 | inactive: 0.34
101 | GGAGUGCUGAUAAAAGAAGTT against 2010107E04Rik | inactive: -1.2
102 | GGAACUGCCAGUUGACAUUTT against Olfr689 | inactive: -0.199
103 | GGCAACAUCACUGAGUAUCTT against Glg1 | inactive: 0.951
